In PubChem BioAssay AID2685 (National Center for Advancing Translational Sciences (NCATS), 2010):
The other results are listed elsewhere or left out. These are further read-outs of the screen, such as a control signal, another cell line or another target. No call is given for them. Most of these compounds were active or inconclusive in the main read-out, so they are no random draw. The note in brackets gives the kind of curve behind each potency; many fits are weak.

Assay: qHTS Assay for Lipid Storage Modulators in Drosophila S3 Cells;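 as to cell number change: cells counted by Cell Tracker Red CMTPX staining in the red channel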
Details: BODIPY lipid droplet fluorescence, 18-24 h; for cell number change: measured here: cell count max response, cells fed with added oleic acid
Procedure, shortened: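 Drosophila S3 cells got compounds at several concentrations plus oleic acid (400 uM solution). Laser-scanning cytometry with 488 nm excitation read lipid droplets at 500-530 nm and cells at 575-640 nm. Percent activity was relative to 20 uM Triacsin C.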

[1] = measured here: lipid fluorescence (Fed channel) AC50, cells fed with added oleic acid
[2] = measured here: cell number channel AC50, cells fed with added oleic acid

Compound: Cc1c(CC(=O)NCCCCCC(=O)O)c(=O)oc2cc3c(cc12)CCC(C)(C)O3
- cell number change: 13.5%
- AC50 [1]: 0.58 µM [rising, single point]

Compound: O=C(Nc1ccc(NC(=O)c2cc([N+](=O)[O-])ccc2N2CCOCC2)cc1)c1cccs1
- cell number change: 20.8%
- AC50 [2]: 0.82 µM [rising, full curve]
- AC50 [1]: 1.3 µM [rising, full curve]

Compound: O=C(CCNC(=O)C1CCN(S(=O)(=O)c2ccc(F)cc2)CC1)NCc1cccnc1
- cell number change: 18.5%
- AC50 [1]: 0.13 µM [rising, full curve, poor fit]

Compound: CN(C)C(CNC(=O)/C=C/c1cccc(Cl)c1)c1ccccc1 (stereo unspecified)
- cell number change: 8.7%
- AC50 [1]: 29.1 µM [falling, single point]

Compound: COC(=O)c1cc(OC(=O)CCc2ccc(OC)c(OC)c2)cc(C(=O)OC)c1
- cell number change: 31.9%
- AC50 [2]: 0.00517 µM [rising, full curve, poor fit]

Compound: Cc1ccc(S(=O)(=O)N2CCCC(C(=O)NCc3ccc4c(c3)OCO4)C2)cc1 (stereo unspecified)
- cell number change: 5.13%
- AC50 [2]: 1.03 µM [rising, partial curve, poor fit]
- AC50 [1]: 0.461 µM [falling, partial curve]

Compound: O=C(Nc1ccccc1N1CCN(C(=O)c2ccccc2)CC1)c1ccc(Br)o1
- cell number change: -15.7%
- AC50 [1]: 3.66 µM [falling, full curve, poor fit]

Compound: CCCCCN1C=CC(=C2C(=O)c3ccccc3C2=O)C=C1
- cell number change: 8.88%
- AC50 [1]: 6.51 µM [falling, single point]

Compound: Cc1cccc(S(=O)(=O)NNC(=O)c2cc(-c3ccc(F)cc3)nc3ccccc23)c1
- cell number change: 13.5%
- AC50 [2]: 0.731 µM [falling, full curve]
- AC50 [1]: 6.51 µM [falling, single point]

Compound: COc1ccc(NC(=O)c2ccc3[nH]c(C)c(C)c3c2)c(OC)c1
- cell number change: -2.84%

Compound: CC1(C)CC(=O)C2=C(C1)NCN(Cc1ccccc1)C2
- cell number change: 1.35%

Compound: N#Cc1ncc(-c2ccc3c(c2)OCCOCCOCCOCCO3)nc1C#N
- cell number change: -14.3%
- AC50 [1]: 0.291 µM [falling, partial curve, poor fit]

Compound: O=C(NCCC1CCCCN1S(=O)(=O)c1cccs1)C(=O)Nc1ccccc1F (stereo unspecified)
- cell number change: -4.58%
- AC50 [1]: 0.0291 µM [rising, full curve, poor fit]

Compound: COC(=O)c1cnn(-c2cc(Oc3cccc(C)c3)ncn2)c1N
- AC50 [2]: 2.91 µM [rising, single point]
- AC50 [1]: 5.17 µM [rising, partial curve]

Compound: Cn1c(=O)c2c(nc(OCC3COC(C)(C)O3)n2Cc2ccccc2F)n(C)c1=O (stereo unspecified)
- cell number change: -17.4%
- AC50 [1]: 0.0326 µM [falling, partial curve, poor fit]

Compound: O=C(Cc1ccccc1)N/N=C/c1ccccc1Cl
- AC50 [1]: 6.51 µM [rising, single point]

Compound: Fc1ccc(NC(=S)NCCc2ccc(Cl)cc2)cc1
- AC50 [1]: 29.1 µM [rising, single point]

Compound: COc1ccc(S(=O)(=O)NCCOc2ccc(Cl)cc2)cc1
- cell number change: -1.3%

Compound: COC(=O)C1=C(C)N(Cc2ccccc2)C(=NCc2cccc(Cl)c2)N[C@H]1c1cccc(F)c1
- AC50 [1]: 18.4 µM [falling, single point]

Compound: COc1cccc(N2C(=NC(=O)CCC3CCCC3)SC3CS(=O)(=O)CC32)c1 (stereo unspecified)
- AC50 [1]: 16.4 µM [falling, single point]

Compound: CCn1c(-c2cccc(Br)c2)n[nH]c1=S
- AC50 [2]: 0.366 µM [rising, full curve, poor fit]
- AC50 [1]: 0.116 µM [rising, full curve, poor fit]

Compound: CC(C(=O)C12CC3CC(CC(C3)C1)C2)N1CCOCC1 (stereo unspecified)
- cell number change: -4.11%

Compound: Cc1noc(N)c1C(=O)Nc1ccc(F)c(Cl)c1
- cell number change: -23.2%
- AC50 [1]: 16.4 µM [falling, single point]

Compound: COc1ccccc1N1CCN(C(=O)C(=O)c2cn(CC(=O)N3CCOCC3)c3ccccc23)CC1
- cell number change: 12.4%
- AC50 [1]: 3.66 µM [rising, full curve]

Compound: O=C(c1cccc(C(F)(F)F)c1)N(c1ccccn1)C1CCCCC1
- cell number change: 26.7%
- AC50 [2]: 0.00461 µM [rising, full curve, poor fit]

Compound: CC1(c2ccc3ccccc3c2)NC(=O)N(CC(=O)N2CCN(S(=O)(=O)c3ccccc3F)CC2)C1=O (stereo unspecified)
- AC50 [1]: 0.00461 µM [rising, full curve, poor fit]

Compound: Cc1cc(/C=C(/C#N)C(=O)O)c(C)n1-c1cccc2ccccc12
- cell number change: -17.6%
- AC50 [1]: 3.66 µM [falling, full curve, poor fit]

Compound: COc1ccc(CN2CCC(=O)N([C@H](CO)CC(C)C)CC2)cc1OC
- cell number change: 14.2%
- AC50 [1]: 29.1 µM [rising, single point]

Compound: Cc1ccc(-c2nc(CC(=O)Nc3cccc(S(=O)(=O)NC4=NCCC4)c3)cs2)cc1
- cell number change: -15.6%
- AC50 [1]: 6.51 µM [falling, single point]

Compound: COc1cc2nc(NC(=O)c3ccc(Cl)cc3)[nH]c(=O)c2cc1OC
- cell number change: -11.1%
- AC50 [2]: 0.0058 µM [falling, full curve, poor fit]
- AC50 [1]: 0.461 µM [rising, single point]

Compound: CSCCC(NC(=O)c1ccccc1Cl)C(=O)N1CCCCCCC1 (stereo unspecified)
- cell number change: 2.43%

Compound: O=C(NC1CCCCC1)C(c1ccc(F)cc1)N(Cc1ccco1)C(=O)c1ccccn1 (stereo unspecified)
- cell number change: -45.4%
- AC50 [2]: 5.17 µM [falling, full curve]
- AC50 [1]: 0.731 µM [falling, full curve]

Compound: Cc1ccc(OCCC(=O)OCC(=O)NC(=O)NC2CCCCC2)cc1
- cell number change: -56.1%
- AC50 [2]: 13 µM [falling, partial curve]

Compound: Cc1cc(NC(=O)COC(=O)CCNS(=O)(=O)c2c(Cl)cccc2Cl)no1
- cell number change: 44%
- AC50 [2]: 0.82 µM [rising, full curve, poor fit]
- AC50 [1]: 1.64 µM [rising, partial curve]

Compound: Cc1[nH]c2ccccc2c1C(=O)C(=O)NCC1CCCO1 (stereo unspecified)
- cell number change: 9.82%
- AC50 [1]: 0.116 µM [falling, full curve, poor fit]

Compound: CC(C)(C)NC(=O)COC(=O)CCC(=O)c1cccs1
- cell number change: -39.1%
- AC50 [2]: 5.8 µM [falling, full curve, poor fit]
- AC50 [1]: 11.6 µM [falling, partial curve]

Compound: COc1ccc(S(=O)(=O)NCc2nc3nc(C)cc(C)n3n2)cc1OC
- cell number change: 17.9%
- AC50 [1]: 18.4 µM [rising, partial curve]

Compound: COc1cc(C)c(Br)cc1S(=O)(=O)NCCCN1CCOCC1
- cell number change: 1.96%
- AC50 [1]: 0.517 µM [rising, full curve, poor fit]

Compound: COc1cccc(-c2cc(C(=O)Nc3cccnc3)c3ccccc3n2)c1
- AC50 [1]: 11.6 µM [falling, single point]

Compound: COc1cccc(-c2nn3c(-c4ccco4)nnc3s2)c1
- cell number change: -11.8%

Compound: CCN(CC)C(=O)COc1cccc2ccccc12
- cell number change: 2.31%
- AC50 [1]: 2.06 µM [rising, partial curve]

Compound: CC1CN(C(=O)c2cc([N+](=O)[O-])cc([N+](=O)[O-])c2)CC(C)O1 (stereo unspecified)
- cell number change: -18.3%
- AC50 [1]: 0.164 µM [falling, full curve, poor fit]

Compound: O=C(c1ccc(Cl)c(S(=O)(=O)N2CCCCC2)c1)N1CCCCCC1
- cell number change: 3.24%
- AC50 [1]: 0.0517 µM [falling, full curve, poor fit]

Compound: Cc1cc(N2C(=O)C(=O)/C(=C(/O)c3ccc(F)cc3)C2c2cccc(Br)c2)no1 (stereo unspecified)
- cell number change: -32.2%
- AC50 [2]: 29.1 µM [falling, single point]
- AC50 [1]: 0.82 µM [falling, full curve, poor fit]

Compound: Cc1ccc(NC(=O)c2ccc(C)c(NC3=NC4CS(=O)(=O)CC4S3)c2)cc1C (stereo unspecified)
- cell number change: 7.78%

Compound: Nc1cccc(NC(=O)CN2CCOCC2)c1
- cell number change: -1.17%

Compound: O=C(Nc1ccc2c(c1)OCCO2)c1c(F)c(F)c(F)c(F)c1F
- cell number change: -23.5%
- AC50 [2]: 1.3 µM [falling, full curve, poor fit]
- AC50 [1]: 14.6 µM [falling, partial curve]

Compound: CCN(CC)CCOC(=O)c1ccc(NC(=O)CCCN2C(=O)/C(=C\c3cccs3)SC2=S)cc1
- cell number change: -14.7%

Compound: O=C(c1ccccn1)N1CCCC(N2CCN(c3ccccc3)CC2)C1 (stereo unspecified)
- AC50 [2]: 0.82 µM [falling, full curve, poor fit]

Compound: C[C@@]12C(=O)Nc3cc(Cl)ccc3C(=O)N1[C@H]1c3ccccc3OC[C@@H]1[C@@H]2c1ccccc1
- cell number change: 0.132%

Compound: CCOC(=O)COc1cccc2c(=O)n(CC(=O)N3CCc4ccccc43)ccc12
- AC50 [1]: 5.8 µM [falling, single point]

Compound: COc1ccc(CCC(=O)N2c3ccccc3CC2C)cc1 (stereo unspecified)
- AC50 [2]: 0.116 µM [falling, full curve, poor fit]

Compound: O=C(CN(c1ccccn1)S(=O)(=O)c1ccccc1)Nc1ccccc1
- AC50 [1]: 6.51 µM [falling, single point]

Compound: CC(Sc1nnc(CNc2cccc3ccccc23)n1-c1ccccc1)C(=O)N/N=C/c1ccco1 (stereo unspecified)
- cell number change: 18.5%

Compound: Cn1c(SCC(=O)Nc2ccccc2F)nnc1C1CCCCC1
- cell number change: 6.16%

Compound: O=C(CN(C(=O)CNS(=O)(=O)c1ccc(F)cc1)c1cccc(F)c1)NCC1CCCO1 (stereo unspecified)
- cell number change: 3.75%
- AC50 [1]: 0.0058 µM [falling, full curve, poor fit]

Compound: Cc1noc(NS(=O)(=O)c2ccc(N/C=C\C(=O)c3ccccc3)cc2)c1C
- cell number change: 32.8%
- AC50 [2]: 20.6 µM [rising, single point]

Compound: COc1ccc(C2/C(=C(/O)c3ccccc3)C(=O)C(=O)N2CCCN2CCOCC2)cc1 (stereo unspecified)
- cell number change: 4.38%

Compound: CC(C)CC1(C(=O)NCCc2c[nH]c3ccccc23)C=CCN1C(=O)c1ccccc1 (stereo unspecified)
- cell number change: -14.1%
- AC50 [1]: 9.2 µM [rising, partial curve]

Compound: O=C(Cn1nc2ccccc2n1)N/N=C/c1cc([N+](=O)[O-])ccc1O
- cell number change: 12.1%
- AC50 [2]: 0.00517 µM [rising, full curve, poor fit]
